In paper PMC7159925:
Results are given in words; binding and its absence hold for the method and conditions named. Binding seen in cells or lysates may run through a third protein. Here binding means that the protein was enriched with, or labelled near, the bait; the list need not be complete.

Sequences of proteins named here, by UniProt entry; tags and fusion partners are left off.
UniProt Q10658: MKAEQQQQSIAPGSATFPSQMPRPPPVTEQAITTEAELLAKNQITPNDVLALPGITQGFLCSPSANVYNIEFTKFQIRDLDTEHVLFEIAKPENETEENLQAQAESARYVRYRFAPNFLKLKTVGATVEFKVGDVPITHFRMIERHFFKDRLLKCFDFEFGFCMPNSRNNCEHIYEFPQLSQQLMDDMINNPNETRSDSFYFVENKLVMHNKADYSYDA

Biological target: UNC-119::GFP (unc-119::gfp knock-in) (C. elegans (endogenous in C. elegans)) (UniProt Q10658)
Assay: affinity purification with mass spectrometry; GFP-trap magnetic beads with lysate of unc-119::gfp knock-in C. elegans, 2 hr at 4°C; lysis buffer 25 mM Tris pH 7.5, 150 mM NaCl, 1% Triton; controls wild type (N2) and a strain expressing GFP in neurons (OH441)

B1: UNC-33 (CRMP) (protein, UniProt Q01630 1-854)
chain: MFPFLAPIRSANHVEQQGTKYYVEITFLADSPYSRAPSSTGTEKSVIPTLRNLDDLETVSNKSRSSEGVNKLGSRPNSRSSAIVKKTSVSSLPTSARSEGKSSPIPVKDAIPAPARHKNKGLEMSSAMMELFGGGGSTSPAPSKRENPADAPSDRVVSNAKLSQPGPEWFEGFEQMDMTDIELPPDPNCPAEKVLRGEKSTPDFDSDWQEAKEDVLDPQSYPKSFNPAESLPGPDIGAGVDDEEEPEAEAQEMEEPQYESKVDEKDDDDNGSSSSKKGHPSEDGDSTRNGETPTDRRNSGAIEETADGESSAQSAAEKKNSGDDGNGGGGEMSILLVKNAQIVNDDAIFVADILIEDGIIQNVAPNLEAPEGAEVLDAAGKLALPAGIDVYTQVTDSSVDDLSTGCKSAIAGGTGTIVEVVRPRGAESVVSAVKRVKNQLEKSGISCHVALSVAITDFCEQEMSELVKNEGINSFVLDGVSLTDDKLLELFEHVKRLGALIRVVPENKSIVAMLEKKMLKLGVTGPEGFPQSRPESLEADRVSGVCVLGNLASCPISIVQVSSADSLAAIEKARASGALAHAEIASAAVTADGSALFSQDLRFASAHLTDVPLRRGAPDRMIGALSTQPLVVCTSGHRPVNSATRVAAKDFAIAQKGSTGAEERMAVVWERAVRSGRIDAMRFVAVTSTNAAKMFNMYPKKGRIAVGADADLVIWDASGKRVLESSRAQSSQENSMYDGLTVHSVVTATIVGGKIAYQNGEVREAPVAGGFLRLSPNSPYLFSMVGQRDKFANVERVEREASSQQQKPQQNGHHKNSGDFDRNRTKVMESSIDFGGSAANRPRNPPGGRTTGFW
With B1 the binding was “binds”.
